Results are given in words; binding and its absence hold for the method and conditions named. Binding seen in cells or lysates may run through a third protein. Some binding calls cover weakened binding; strength is not graded here. Tags and fused reporters may be left off the sequences shown.

This assay addresses T1, His-tagged OsSRT1 (rice (Oryza sativa indica)) (UniProt B8ARK7).
T1 sequence: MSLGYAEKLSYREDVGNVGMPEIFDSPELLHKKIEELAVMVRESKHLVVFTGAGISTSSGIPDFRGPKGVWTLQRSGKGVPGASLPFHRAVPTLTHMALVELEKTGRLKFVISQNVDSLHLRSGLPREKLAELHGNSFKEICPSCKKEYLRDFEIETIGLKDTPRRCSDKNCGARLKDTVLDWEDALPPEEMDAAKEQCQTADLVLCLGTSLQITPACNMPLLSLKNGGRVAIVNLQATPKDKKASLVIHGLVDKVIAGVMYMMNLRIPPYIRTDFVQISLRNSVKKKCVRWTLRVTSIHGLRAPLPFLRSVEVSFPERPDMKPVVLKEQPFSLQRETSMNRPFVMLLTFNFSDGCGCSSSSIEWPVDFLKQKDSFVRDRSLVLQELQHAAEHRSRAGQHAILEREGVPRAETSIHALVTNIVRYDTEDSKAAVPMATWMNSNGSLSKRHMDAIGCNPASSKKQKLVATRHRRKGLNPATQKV
The assay is described as follows: pull-down.

B1: OsPARP1 (enzyme, UniProt Q7EYV7 1-977)
chain: MAAPPKAWKAEYAKSGRSSCKSCRSPIGKDQLRLGKMVQATQFDGLMPMWNHASCILSKKNQIKSVDDVEGIDTLRWDDQEKIRNYVGSAPATASSAAAISDKCTIEVAKSARTSCRRCGEKIKKGTVRVSSKLEGQGWYHASCFLEMSPAATVENFSGWEILSHEDKRAVLDLVKKDAPSSGQTSSKGSKRKNNQNDIHDCKAPKIIRSISEGTAEDKGKAVVSHDSNANSSDLQEKLKEQSDTLWKLKDELKKHVSTAELRNMLEANGQDTSGPERHLLDRCADGMLFGALGTCPVCSSFLYYHGGQYHCSGYVSEWSKCTYSTTEPVRSKKKWKIPDEMDNGYLTKWFKSQKAKKPERVLPPMSPEKSLCQSTQQNRSFLSEGLDKLRVSIVGQSKDVVDGWKQKLKDAGANFNATVTKDSSCLVLCSELESENAEVKKARRLKIPILREGYLGECIRKNRVLPFDLYKVEAALESSKGGTMTVKVKGRSAVHESSGLQDTGHILEDGKSIYNTTLNMSDLTRGVNSYYILQVIEEDNGSDCYVFRKWGRVGNEKIGGTKLEEMSKIHAIQEFRRLFLEKTGNPWEAWEQKTNFQKQPGKFYPLDIDYGVRQGPKRKDIDKMKSSLPPQLLELMNMLFNIETYRAAMLEFKINMSEMPLGKLSKENIQKGFEALTEIQNLLGNTNNQELAVRESLIVAASNRFFTLIPSIHPHIIQDEDDLMVKVKMLEALQDIEIASKLVGFDSDNDESLDDKYKKLRCAITPLPHDCEDYKLVEKYLLNTHAPTHKEWSLELEEVFSLDRDGEFSKYSRYKNNLHNKMLLWHGSRLTNYVGILSQGLRIAPPEAPVTGYMFGKGLYFADLVSKSAQYCYVDRKNPVGLMLLSEVALGDMYELKKATSMDKPPRGKHSTKGLGKTVPLESEFAKWRDDVVVPCGKPVPASIKTSELMYNEYIVYNTSQVKMQYLLKVRFHHKR
As to B1, the binding result was “binds”.
